Two molecules from article PMC6487577 can be followed below.

One assay addresses TRIM33 RING (aa 1–208) (UniProt Q9UPN9). As to the kind of experiment: SEC-MALS; SEC-MALLS, Superdex 75 10/300 GL, 25 mM Hepes pH 7.5, 150 mM NaCl, 0.5 mM TCEP, 3 mM NaN3, 25°C, 100 μl samples at multiple concentrations; both purified. (In general: Size exclusion chromatography separates by hydrodynamic size, large species first.)
A further assay addresses TRIM24 RING (aa 1–153) (UniProt O15164). Described as above.

Results are given in words; binding and its absence hold for the method and conditions named.

B1: TRIM33 RING (aa 1–208) (domain or fragment, UniProt Q9UPN9 1-208)
chain: MAENKGGGEAESGGGGSGSAPVTAGAAGPAAQEAEPPLTAVLVEEEEEEGGRAGAEGGAAGPDDGGVAAASSGSAQAASSPAASVGTGVAGGAVSTPAPAPASAPAPGPSAGPPPGPPASLLDTCAVCQQSLQSRREAEPKLLPCLHSFCLRCLPEPERQLSVPIPGGSNGDIQQVGVIRCPVCRQECRQIDLVDNYFVKDTSEAPSS
For B1, the binding entry in the assay with TRIM33 RING (aa 1–208) is “no binding”.

B2: TRIM24 RING (aa 1–153) (domain or fragment, UniProt O15164 1-153)
chain: MEVAVEKAVAAAAAASAAASGGPSAAPSGENEAESRQGPDSERGGEAARLNLLDTCAVCHQNIQSRAPKLLPCLHSFCQRCLPAPQRYLMLPAPMLGSAETPPPVPAPGSPVSGSSPFATQVGVIRCPVCSQECAERHIIDNFFVKDTTEVPS
For B2, the binding entry with TRIM24 RING (aa 1–153) was “no binding”.
